From PMC5666316 come the findings set out here.

Sequences of proteins named here, by UniProt entry; tags and fusion partners are left off. A change or cut given only in a name is not applied to a line headed by its entry.
UniProt Q9EPK8: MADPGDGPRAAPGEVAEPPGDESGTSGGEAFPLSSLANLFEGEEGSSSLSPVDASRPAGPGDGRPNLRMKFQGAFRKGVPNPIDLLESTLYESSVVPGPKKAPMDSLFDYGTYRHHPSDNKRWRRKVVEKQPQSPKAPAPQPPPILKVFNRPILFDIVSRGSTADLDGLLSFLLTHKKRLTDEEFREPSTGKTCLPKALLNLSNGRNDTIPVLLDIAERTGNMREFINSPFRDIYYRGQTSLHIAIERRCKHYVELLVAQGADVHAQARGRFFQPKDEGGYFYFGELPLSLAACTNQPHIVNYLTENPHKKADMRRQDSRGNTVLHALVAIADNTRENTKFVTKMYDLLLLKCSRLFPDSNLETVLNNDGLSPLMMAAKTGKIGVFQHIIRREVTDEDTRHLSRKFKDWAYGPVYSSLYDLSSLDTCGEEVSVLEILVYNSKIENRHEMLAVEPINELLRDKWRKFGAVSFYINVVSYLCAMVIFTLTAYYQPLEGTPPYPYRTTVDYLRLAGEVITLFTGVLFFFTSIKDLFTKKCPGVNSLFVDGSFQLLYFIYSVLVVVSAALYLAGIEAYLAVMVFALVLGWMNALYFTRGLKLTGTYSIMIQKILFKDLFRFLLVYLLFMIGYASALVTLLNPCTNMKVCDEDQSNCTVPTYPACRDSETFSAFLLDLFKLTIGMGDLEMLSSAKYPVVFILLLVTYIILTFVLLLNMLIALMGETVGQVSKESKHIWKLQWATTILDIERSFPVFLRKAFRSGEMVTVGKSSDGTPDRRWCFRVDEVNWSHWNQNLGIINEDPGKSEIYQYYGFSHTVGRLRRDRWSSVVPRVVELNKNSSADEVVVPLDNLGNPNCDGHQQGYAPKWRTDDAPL
UniProt P70605: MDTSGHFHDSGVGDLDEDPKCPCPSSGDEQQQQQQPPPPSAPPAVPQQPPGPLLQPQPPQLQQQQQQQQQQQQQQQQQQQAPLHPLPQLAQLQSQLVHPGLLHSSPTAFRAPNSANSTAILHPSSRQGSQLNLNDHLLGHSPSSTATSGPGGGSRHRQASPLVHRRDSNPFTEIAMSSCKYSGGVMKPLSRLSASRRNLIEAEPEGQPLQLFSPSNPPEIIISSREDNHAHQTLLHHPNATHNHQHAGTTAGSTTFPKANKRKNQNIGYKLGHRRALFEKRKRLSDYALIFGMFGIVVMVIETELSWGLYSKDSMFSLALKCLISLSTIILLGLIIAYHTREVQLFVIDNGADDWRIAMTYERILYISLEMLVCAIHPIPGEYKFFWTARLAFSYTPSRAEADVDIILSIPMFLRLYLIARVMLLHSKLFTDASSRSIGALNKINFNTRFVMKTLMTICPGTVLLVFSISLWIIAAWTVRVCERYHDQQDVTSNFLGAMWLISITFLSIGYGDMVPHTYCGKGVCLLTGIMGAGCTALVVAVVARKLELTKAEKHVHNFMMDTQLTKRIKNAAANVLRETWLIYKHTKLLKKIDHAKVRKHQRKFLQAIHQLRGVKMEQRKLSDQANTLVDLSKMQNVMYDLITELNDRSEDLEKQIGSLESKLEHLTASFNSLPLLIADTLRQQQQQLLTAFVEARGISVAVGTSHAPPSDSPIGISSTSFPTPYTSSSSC

These are yes or no findings as the source states them, for the method shown. Binding seen in cells or lysates may run through a third protein. Binding can be weak; no strength is given.

Holding throughout (experiment): FRET or BRET; acceptor photobleaching FRET in HEK cells co-expressing CFP-tagged TRPV4 and YFP-tagged KCa2.3 (wild type or deletions); negative control CFP and YFP as separate molecules, positive control YFP-CFP dimer
A general note: BRET reads energy transfer from a luciferase to a nearby fluorophore.

Test [1] concerns the target CFP-tagged TRPV4 with the AR4 region deleted (UniProt Q9EPK8).
Test [2] addresses CFP-tagged TRPV4 with the AR1 region deleted (UniProt Q9EPK8).
In test [3] the target is CFP-tagged TRPV4 with the CaMBD region deleted (UniProt Q9EPK8).
Test [4] concerns the target CFP-tagged TRPV4 with the AR6 region deleted (UniProt Q9EPK8).
The target of test [5] is CFP-tagged TRPV4 with the AR5 region deleted (UniProt Q9EPK8).
Test [6] has as its target CFP-tagged TRPV4 with the AR3 region deleted (UniProt Q9EPK8).
The target in test [7] is CFP-tagged TRPV4 (wild type) (UniProt Q9EPK8).

For “YFP-tagged KCa2.3 (wild type) (from UniProt P70605 1-732)”, the binding result in test [1], in test [2], in test [3], in test [4], in test [5] and in test [6] was “binds” throughout.

Regarding “YFP-tagged KCa2.3 with the CaMBD region deleted (from UniProt P70605)”, the binding entry in test [7] is “binds”.

“YFP-tagged KCa2.3 with the Loop region deleted (from UniProt P70605)”: in test [7], the binding entry is reported as “binds”.

Turning to “YFP-tagged KCa2.3 with the α1 region deleted (from UniProt P70605)”, the binding entry in test [7] is on record as “binds”.

On to “YFP-tagged KCa2.3 with the α2 region deleted (from UniProt P70605)”, for which the binding result in test [7] is listed as “binds”.
